Consider one substance from US20060272039A1.

Sequences of proteins named here, by UniProt entry; tags and fusion partners are left off.
UniProt Q8WQG9: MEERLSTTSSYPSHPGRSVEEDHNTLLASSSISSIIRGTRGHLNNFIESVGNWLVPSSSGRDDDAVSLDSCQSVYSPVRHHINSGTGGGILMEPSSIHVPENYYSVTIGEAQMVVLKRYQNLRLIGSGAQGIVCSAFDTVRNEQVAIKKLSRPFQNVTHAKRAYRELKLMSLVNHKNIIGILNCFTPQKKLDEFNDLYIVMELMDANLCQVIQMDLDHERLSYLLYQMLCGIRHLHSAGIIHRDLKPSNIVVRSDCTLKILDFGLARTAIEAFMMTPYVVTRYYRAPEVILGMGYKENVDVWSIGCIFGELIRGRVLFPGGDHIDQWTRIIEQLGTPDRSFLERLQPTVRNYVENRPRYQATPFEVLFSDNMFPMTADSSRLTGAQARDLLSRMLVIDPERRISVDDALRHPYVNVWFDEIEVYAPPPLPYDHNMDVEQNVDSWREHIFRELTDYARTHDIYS

Results are given in words; binding and its absence hold for the method and conditions named. Binding seen in cells or lysates may run through a third protein. Some entries that bind do so weakly or less than the wild type. Sequences can lack the tags named with a protein.

In test [1] the target is T1, Flag-tagged DAF-16 (C. elegans) (UniProt O16850).
T1 sequence (looked up): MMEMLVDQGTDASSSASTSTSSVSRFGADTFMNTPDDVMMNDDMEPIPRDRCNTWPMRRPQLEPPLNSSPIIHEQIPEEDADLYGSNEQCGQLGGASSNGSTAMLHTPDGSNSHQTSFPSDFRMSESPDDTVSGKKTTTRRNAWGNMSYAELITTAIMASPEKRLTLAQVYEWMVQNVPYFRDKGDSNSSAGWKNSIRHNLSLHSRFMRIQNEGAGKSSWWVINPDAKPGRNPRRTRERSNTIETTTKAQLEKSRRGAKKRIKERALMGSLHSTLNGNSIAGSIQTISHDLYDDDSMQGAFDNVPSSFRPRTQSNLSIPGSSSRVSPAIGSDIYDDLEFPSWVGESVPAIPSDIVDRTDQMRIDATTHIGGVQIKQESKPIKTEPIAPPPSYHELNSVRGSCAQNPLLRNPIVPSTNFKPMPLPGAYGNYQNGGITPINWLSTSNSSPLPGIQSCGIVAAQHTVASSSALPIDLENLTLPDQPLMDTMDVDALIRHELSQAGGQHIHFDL
In words: co-immunoprecipitation from lysates of co-transfected COS-7 cells; IP with anti-Xpress, immunoblot with anti-Flag (legend of FIG. 20A). In general terms: In western blotting, separated proteins are transferred to a membrane and probed.

Test [2] has as its target T1, Flag-tagged DAF-16 (C. elegans). In words: co-immunoprecipitation from lysates of co-transfected COS-7 cells; IP with anti-Xpress, immunoblot with anti-Flag.

Turning to “Xpress-tagged JNK-1 (from UniProt Q8WQG9 1-463) (enzyme)”, the binding result in test [1] and in test [2] was “binds” each time.
